Laboratory results taken from US20240409658A1 (Seagen, published 2024).
These are yes or no findings as the source states them, for the method shown. Some results given as binding are weak or reduced against the parent protein; the word gives no strength.

Columns and labels:
[1] = biological target: T1, human CD228 on the cell surface (RPMI-7951 cells stably expressing human CD228; A375 cells) (human) (UniProt P08582); assay: saturation binding by flow cytometry, RPMI-7951 cells stably expressing human CD228; PE anti-human IgG secondary
T1 sequence (looked up): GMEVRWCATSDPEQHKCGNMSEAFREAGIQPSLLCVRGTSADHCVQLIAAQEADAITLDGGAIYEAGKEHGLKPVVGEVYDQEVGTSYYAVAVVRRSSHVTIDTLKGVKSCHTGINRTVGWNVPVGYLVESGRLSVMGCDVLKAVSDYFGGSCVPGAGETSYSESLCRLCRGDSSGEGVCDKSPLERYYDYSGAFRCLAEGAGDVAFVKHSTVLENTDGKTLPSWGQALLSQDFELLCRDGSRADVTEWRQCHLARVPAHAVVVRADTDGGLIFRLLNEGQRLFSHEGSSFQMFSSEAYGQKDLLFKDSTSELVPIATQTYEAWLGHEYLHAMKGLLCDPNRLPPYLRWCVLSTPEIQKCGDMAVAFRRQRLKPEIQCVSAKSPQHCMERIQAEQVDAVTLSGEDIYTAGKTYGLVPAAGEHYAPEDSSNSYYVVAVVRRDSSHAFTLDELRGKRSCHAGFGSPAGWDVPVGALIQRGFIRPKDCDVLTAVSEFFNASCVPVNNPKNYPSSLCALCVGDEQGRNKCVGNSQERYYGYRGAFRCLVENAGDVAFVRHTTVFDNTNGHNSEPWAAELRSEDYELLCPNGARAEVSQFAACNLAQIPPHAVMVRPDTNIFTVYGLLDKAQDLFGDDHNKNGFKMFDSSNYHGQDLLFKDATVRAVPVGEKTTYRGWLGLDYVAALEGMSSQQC

[2] = biological target: T1, human CD228 on the cell surface (RPMI-7951 cells stably expressing human CD228; A375 cells) (human); assay: competition flow cytometry, RPMI-7951 cells stably expressing human CD228; competitor 5 nM AF647-labeled mL49; unlabeled antibody 0.06-1000 nM

B1: cL49ec (chimeric L49 with an S239C mutation) (antibody, V domains shown)
VH: EVQLQESGPSLVKPSQTLSLTCSVTGDSITSGYWNWIRKFPGNKLEYMGYISDSGITYYNPSLKSRISITRDTSKNQYYLQLNFVTAEDTATYNCARRTLATYYAMDYWGQGTSVTVSS
VL: DFVMTQTPLSLPVSLGDQASISCRASQSLVHSNGNTYLHWYLQKPGQSPKLLIYRVSNRFSGVPDRFSGSGSGTDFTLKISRVEAEDLGVYFCSQSTHVPPTFGGGTKLEIK
notes: Human constant regions with S239C; also called chimeric LA9
- binding [1]: binds
- binding [2]: binds
